Screening data

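A cell line overexpressing EP4 prostanoid receptors, stimulated with a low (about EC15) PGE2 dose; cAMP read by HTRF FRET after a short room-temperature incubation. Compounds were tested at 20 µM final. A low (about EC15) PGE2 dose was present. Percent cAMP induction as a fraction of the 1 µM PGE2 response, averaged over three replicates; a higher value means more cAMP.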

Values are in %. Common to all entries: measured here: EP4 receptor counter-screen. This is a side read-out of the assay, for part of the compounds, not drawn at random.

compound: O=C(CSc1nnc(Cc2ccccc2)n1Cc1ccco1)NC12CC3CC(CC(C3)C1)C2
tested on / at: percent of 1 uM PGE2 response; plus low (about EC15) PGE2 agonist
cAMP induction (%): -12.78

compound: NC(N)=Nc1nc(CSCC/C(N)=N/S(N)(=O)=O)cs1
tested on / at: percent of 1 uM PGE2 response; plus low (about EC15) PGE2 agonist
cAMP induction (%): 12.17

compound: Cc1cc2ccccc2nc1SCC(=O)NC1CCCC1
tested on / at: percent of 1 uM PGE2 response; plus low (about EC15) PGE2 agonist
cAMP induction (%): 48.74

compound: O=C(O)c1ccc(-c2nc(-c3cccc(C(F)(F)F)c3)cs2)cc1
tested on / at: percent of 1 uM PGE2 response; plus low (about EC15) PGE2 agonist
cAMP induction (%): 4.15

compound: COC(=O)c1c(NC(=O)Cc2cccs2)sc2c1CCC(C)C2 (stereo unspecified)
tested on / at: percent of 1 uM PGE2 response; plus low (about EC15) PGE2 agonist
cAMP induction (%): -19.07

compound: C/C(=N\O)C(=O)OC1CC(C)CCC1C(C)C (stereo unspecified)
tested on / at: percent of 1 uM PGE2 response; plus low (about EC15) PGE2 agonist
cAMP induction (%): -3.86

compound: Cc1c(F)cccc1NC(=O)CCCCCC1NC(=O)NC1C (stereo unspecified)
tested on / at: percent of 1 uM PGE2 response; plus low (about EC15) PGE2 agonist
cAMP induction (%): 13.04

compound: O=c1nc(-c2ccccc2)cc(-c2ccccc2)[nH]1
tested on / at: percent of 1 uM PGE2 response; plus low (about EC15) PGE2 agonist
cAMP induction (%): 9.083

compound: COC(=O)c1c(-c2ccc(F)cc2)csc1NC(=O)C1CCCO1 (stereo unspecified)
tested on / at: percent of 1 uM PGE2 response; plus low (about EC15) PGE2 agonist
cAMP induction (%): -5.877

compound: O=C(O)CCCCCCCCCCCc1ccccc1
tested on / at: percent of 1 uM PGE2 response; plus low (about EC15) PGE2 agonist
cAMP induction (%): -7.137

compound: O=c1c2cn[nH]c2nc(SCc2ccccc2F)n1-c1ccc(Br)cc1
tested on / at: percent of 1 uM PGE2 response; plus low (about EC15) PGE2 agonist
cAMP induction (%): -13.56

From PubChem BioAssay record AID1080 (Emory University Molecular Libraries Screening Center, 2008).